# From the supplement of paper PMC11348887
# Structures can show the parent of a compound that is named as a salt. The list shows a part of the results. Most entries show no effect beyond the scatter of the controls. *1 amine or outer side, *2 acyl side, *3 side chain or, on linkers, in order; H or OH if unused. Where a SMILES comes first, the peptide text is derived from it. Bridges are numbered along the chain shown (N, C = ends). [ ]: non-standard residue; d: D form. The star is where a group is joined. ξ: configuration not given here. X1 = N=C1NCCC([C@H](N[*:1])C(=O)[*:2])N1; ΔAla(Z-3-ureido) = NC(=O)N/C=C(\N)C(=O)O; ξβ3hOrn = NCCCC(N)CC(=O)*; Dap = NC[C@H](N)C(=O)O
# Experiments:
# Conditions in all cases: 5 µM; treatment: days 7-14 after plating, readout day 21
# [1] = tested on: hPSC-derived cortical neurons (WA09); assay: nucleus area z-score vs screen plate; higher = larger nuclei (more mature)
# [2] = tested on: hPSC-derived cortical neurons (WA09); assay: total neurite length per nucleus (MAP2) z-score; higher = more neurite growth
# [3] = tested on: hPSC-derived cortical neurons (WA09); assay: nucleus roundness z-score vs screen plate; higher = rounder nuclei (more mature)
# [4] = tested on: hPSC-derived cortical neurons (WA09); assay: KCl-induced FOS+/EGR-1+ double-positive nuclei fraction z-score (KCl minus unstimulated); higher = stronger activity-induced IEG response
smiles,measurement,setting,value
CC(=O)NS(=O)(=O)c1ccc(NC(=O)c2ccccc2C(=O)O)cc1 [Phthalylsulfacetamide],nucleus area z-score,[1],0.404
same,total neurite length per nucleus (z-score),[2],0.593
same,nucleus roundness z-score,[3],0.924
same,KCl-induced FOS+/EGR-1+ double-positive nuclei fraction z-score,[4],0.858
Nc1nccc(Oc2ccc(NC(=O)c3c[nH]cc(-c4ccc(F)cc4)c3=O)cc2F)c1Cl,nucleus area z-score,[1],1.97
same,total neurite length per nucleus (z-score),[2],-1.1
same,nucleus roundness z-score,[3],-0.644
same,KCl-induced FOS+/EGR-1+ double-positive nuclei fraction z-score,[4],-0.687
CNCCCC12CCC(c3ccccc31)c1ccccc12 [Maprotiline HCl],nucleus area z-score,[1],-0.264
same,total neurite length per nucleus (z-score),[2],-0.158
same,nucleus roundness z-score,[3],-1.04
same,KCl-induced FOS+/EGR-1+ double-positive nuclei fraction z-score,[4],-0.00757
CSc1cccc(Nc2ncc3cc(-c4c(Cl)cccc4Cl)c(=O)n(C)c3n2)c1,nucleus area z-score,[1],-0.559
same,total neurite length per nucleus (z-score),[2],0.734
same,nucleus roundness z-score,[3],0.969
same,KCl-induced FOS+/EGR-1+ double-positive nuclei fraction z-score,[4],-0.477
CC(C)Cc1ccc(C(C)C(=O)O)cc1 (stereo not given) [Ibuprofen Lysine],nucleus area z-score,[1],0.613
same,total neurite length per nucleus (z-score),[2],0.457
same,nucleus roundness z-score,[3],0.634
same,KCl-induced FOS+/EGR-1+ double-positive nuclei fraction z-score,[4],1.74
CCCCC(=O)O[C@H]1CC[C@H]2[C@@H]3CCc4cc(O)ccc4[C@H]3CC[C@]12C [Estradiol valerate],nucleus area z-score,[1],1.24
same,total neurite length per nucleus (z-score),[2],0.346
same,nucleus roundness z-score,[3],0.724
same,KCl-induced FOS+/EGR-1+ double-positive nuclei fraction z-score,[4],0.268
N#Cc1ccc(-c2c(-c3ncn[nH]3)sc(N3CCOCC3)c2C#N)c(F)c1,nucleus area z-score,[1],-6.48
same,total neurite length per nucleus (z-score),[2],-1.67
same,nucleus roundness z-score,[3],-2.69
same,KCl-induced FOS+/EGR-1+ double-positive nuclei fraction z-score,[4],-0.39
CSc1ccc2c(c1)N(CCC1CCCCN1C)c1ccccc1S2 (stereo not given) [Thioridazine HCl],nucleus area z-score,[1],-2.6
same,total neurite length per nucleus (z-score),[2],-1.81
same,nucleus roundness z-score,[3],-2.59
same,KCl-induced FOS+/EGR-1+ double-positive nuclei fraction z-score,[4],-1.02
O.O.O.O.O=C([O-])CC(O)(CC(=O)[O-])C(=O)[O-].[Li+].[Li+].[Li+] [Citric acid trilithium salt tetrahydrate],nucleus area z-score,[1],-0.551
same,total neurite length per nucleus (z-score),[2],0.266
same,nucleus roundness z-score,[3],1.02
same,KCl-induced FOS+/EGR-1+ double-positive nuclei fraction z-score,[4],1.24
CCOC(=O)C1=C(COCCN)NC(C)=C(C(=O)OC)C1c1ccccc1Cl (stereo not given) [Amlodipine Besylate],nucleus area z-score,[1],-2.31
same,total neurite length per nucleus (z-score),[2],-2
same,nucleus roundness z-score,[3],-1.62
same,KCl-induced FOS+/EGR-1+ double-positive nuclei fraction z-score,[4],-1.41
COc1ccc(C[C@H](N)C(=O)N[C@H]2[C@@H](O)[C@H](n3cnc4c(N(C)C)ncnc43)O[C@@H]2CO)cc1 [Puromycin 2HCl],nucleus area z-score,[1],-16.3
same,total neurite length per nucleus (z-score),[2],-6.24
same,nucleus roundness z-score,[3],-9.59
same,KCl-induced FOS+/EGR-1+ double-positive nuclei fraction z-score,[4],-0.979
COc1cc2c(NC3CCN(CC4CCCCC4)CC3)nc(N3CCCN(C(C)C)CC3)nc2cc1OCCCN1CCCCC1,nucleus area z-score,[1],-12.6
same,total neurite length per nucleus (z-score),[2],-5.02
same,nucleus roundness z-score,[3],-2.13
same,KCl-induced FOS+/EGR-1+ double-positive nuclei fraction z-score,[4],-2.79
N#CSc1cc(SC#N)c(N)nc1N,nucleus area z-score,[1],-3.71
same,total neurite length per nucleus (z-score),[2],-2.47
same,nucleus roundness z-score,[3],-4
same,KCl-induced FOS+/EGR-1+ double-positive nuclei fraction z-score,[4],-0.872
C[C@@H]1NC(=O)[C@@H](N)CNC(=O)[C@H](C2CCNC(=N)N2)NC(=O)/C(=C/NC(N)=O)NC(=O)[C@H](CNC(=O)CC(N)CCCN)NC1=O.N=C1NCC[C@H]([C@@H]2NC(=O)/C(=C/NC(N)=O)NC(=O)[C@H](CNC(=O)C[C@@H](N)CCCN)NC(=O)[C@H](CO)NC(=O)[C@@H](N)CNC2=O)N1 [Capreomycin Sulfate] (H-[Dap]S[Dap](ξβ3hOrn)[ΔAla(Z-3-ureido)][X1]; lactam 1-C),nucleus area z-score,[1],-0.103
same,total neurite length per nucleus (z-score),[2],1.64
same,nucleus roundness z-score,[3],0.753
same,KCl-induced FOS+/EGR-1+ double-positive nuclei fraction z-score,[4],1.96
CC(C)(O)CNc1nc(Nc2ccnc(C(F)(F)F)c2)nc(-c2cccc(C(F)(F)F)n2)n1 [Enasidenib (AG-221)],nucleus area z-score,[1],0.233
same,total neurite length per nucleus (z-score),[2],0.105
same,nucleus roundness z-score,[3],-0.665
same,KCl-induced FOS+/EGR-1+ double-positive nuclei fraction z-score,[4],2.27
Cc1ccc(C(=O)c2ccc(CC(=O)O)n2C)cc1 [Tolmetin Sodium],nucleus area z-score,[1],0.873
same,total neurite length per nucleus (z-score),[2],0.938
same,nucleus roundness z-score,[3],0.289
same,KCl-induced FOS+/EGR-1+ double-positive nuclei fraction z-score,[4],-0.478
O=c1c(-c2ccc(O)cc2)coc2cc(O)ccc12 [Daidzein],nucleus area z-score,[1],1.03
same,total neurite length per nucleus (z-score),[2],-0.472
same,nucleus roundness z-score,[3],-0.128
same,KCl-induced FOS+/EGR-1+ double-positive nuclei fraction z-score,[4],1.05
Cc1ccc(NC(=O)c2ccc(CN3CCN(C)CC3)cc2)cc1Nc1nccc(-c2cccnc2)n1 [Imatinib (STI571)],nucleus area z-score,[1],-3.22
same,total neurite length per nucleus (z-score),[2],-1.48
same,nucleus roundness z-score,[3],-0.519
same,KCl-induced FOS+/EGR-1+ double-positive nuclei fraction z-score,[4],1.69
COc1cc(NS(=O)(=O)c2ccc(N)cc2)nc(OC)n1 [Sulphadimethoxine],nucleus area z-score,[1],-0.018
same,total neurite length per nucleus (z-score),[2],1.25
same,nucleus roundness z-score,[3],0.667
same,KCl-induced FOS+/EGR-1+ double-positive nuclei fraction z-score,[4],0.343
NC[C@@](O)(c1ccc(Cl)cc1)c1ccc(-c2cn[nH]c2)cc1,nucleus area z-score,[1],0.25
same,total neurite length per nucleus (z-score),[2],-1.88
same,nucleus roundness z-score,[3],0.301
same,KCl-induced FOS+/EGR-1+ double-positive nuclei fraction z-score,[4],-1.14
O=C(Nc1cc(C(F)(F)F)ccc1N1CCCCC1)c1ccncc1,nucleus area z-score,[1],-0.0663
same,total neurite length per nucleus (z-score),[2],1.51
same,nucleus roundness z-score,[3],0.00641
same,KCl-induced FOS+/EGR-1+ double-positive nuclei fraction z-score,[4],-0.148
N#Cc1ccc2[nH]c(O)c(-c3ccc(CN4CCOCC4)cn3)c2c1,nucleus area z-score,[1],-0.956
same,total neurite length per nucleus (z-score),[2],-1.66
same,nucleus roundness z-score,[3],-1.25
same,KCl-induced FOS+/EGR-1+ double-positive nuclei fraction z-score,[4],0.0201
OC(CCCN1CCCCC1)(c1ccccc1)c1ccccc1 [Diphenidol HCl],nucleus area z-score,[1],0.521
same,total neurite length per nucleus (z-score),[2],-0.269
same,nucleus roundness z-score,[3],0.422
same,KCl-induced FOS+/EGR-1+ double-positive nuclei fraction z-score,[4],0.13
COc1cccc(-c2cc(NCc3ccc4c(c3)OCO4)nc(N)n2)c1 [Wnt agonist 1],nucleus area z-score,[1],-10.4
same,total neurite length per nucleus (z-score),[2],-3.89
same,nucleus roundness z-score,[3],-2.44
same,KCl-induced FOS+/EGR-1+ double-positive nuclei fraction z-score,[4],-0.819
NC(=O)c1cn(Cc2c(F)cccc2F)nn1 [Rufinamide],nucleus area z-score,[1],0.897
same,total neurite length per nucleus (z-score),[2],0.116
same,nucleus roundness z-score,[3],0.186
same,KCl-induced FOS+/EGR-1+ double-positive nuclei fraction z-score,[4],0.366

# At a glance, some entries already given.
smiles,measurement,setting,value
O=C(Nc1cc(C(F)(F)F)ccc1N1CCCCC1)c1ccncc1,nucleus roundness z-score,[3],0.00641
same,KCl-induced FOS+/EGR-1+ double-positive nuclei fraction z-score,[4],-0.148
N#Cc1ccc2[nH]c(O)c(-c3ccc(CN4CCOCC4)cn3)c2c1,nucleus area z-score,[1],-0.956

# An excerpt of these results, with tabs:
smiles	measurement	setting	value
CC(C)Cc1ccc(C(C)C(=O)O)cc1 (stereo not given) [Ibuprofen Lysine]	KCl-induced FOS+/EGR-1+ double-positive nuclei fraction z-score	[4]	1.74
CCCCC(=O)O[C@H]1CC[C@H]2[C@@H]3CCc4cc(O)ccc4[C@H]3CC[C@]12C [Estradiol valerate]	nucleus area z-score	[1]	1.24
